Laboratory results as given in paper PMC5432272.
No constants are given. Whether binding was seen depends on the method and setting. Binding calls can cover weak binding; strength is not graded here. Tags and fused reporters may be left off the sequences shown. For some assays here: Binding seen in cells or lysates may run through a third protein.

T1: GST-GGA3 VHS domain (human) (UniProt Q9NZ52)
T1 sequence: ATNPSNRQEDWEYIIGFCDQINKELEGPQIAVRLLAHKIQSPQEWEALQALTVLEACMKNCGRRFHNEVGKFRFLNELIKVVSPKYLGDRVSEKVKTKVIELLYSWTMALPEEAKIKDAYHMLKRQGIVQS

T2: Myc-GGA3 (human) (UniProt Q9NZ52)
T2 sequence: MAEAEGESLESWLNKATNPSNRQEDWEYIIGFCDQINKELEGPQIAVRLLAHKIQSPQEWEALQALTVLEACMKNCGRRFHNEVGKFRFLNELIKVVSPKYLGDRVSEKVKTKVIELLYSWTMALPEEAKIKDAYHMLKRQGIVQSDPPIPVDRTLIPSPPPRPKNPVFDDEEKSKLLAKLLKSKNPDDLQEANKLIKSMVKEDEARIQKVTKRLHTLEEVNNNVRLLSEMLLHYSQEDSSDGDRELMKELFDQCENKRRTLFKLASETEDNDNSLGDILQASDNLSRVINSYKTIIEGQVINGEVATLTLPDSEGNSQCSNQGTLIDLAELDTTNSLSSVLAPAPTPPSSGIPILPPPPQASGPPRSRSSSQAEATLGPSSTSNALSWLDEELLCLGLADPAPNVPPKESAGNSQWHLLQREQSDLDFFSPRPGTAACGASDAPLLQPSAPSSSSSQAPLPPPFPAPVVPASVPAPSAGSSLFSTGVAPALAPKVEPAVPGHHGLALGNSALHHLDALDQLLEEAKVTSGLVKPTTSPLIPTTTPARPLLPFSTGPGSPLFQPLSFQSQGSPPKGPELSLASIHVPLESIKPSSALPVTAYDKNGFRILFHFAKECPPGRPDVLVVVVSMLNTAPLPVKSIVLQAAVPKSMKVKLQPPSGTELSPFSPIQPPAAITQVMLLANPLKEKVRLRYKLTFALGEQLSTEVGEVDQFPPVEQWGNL

T3: Myc-GGA1 (human) (UniProt Q9UJY5)
T3 sequence: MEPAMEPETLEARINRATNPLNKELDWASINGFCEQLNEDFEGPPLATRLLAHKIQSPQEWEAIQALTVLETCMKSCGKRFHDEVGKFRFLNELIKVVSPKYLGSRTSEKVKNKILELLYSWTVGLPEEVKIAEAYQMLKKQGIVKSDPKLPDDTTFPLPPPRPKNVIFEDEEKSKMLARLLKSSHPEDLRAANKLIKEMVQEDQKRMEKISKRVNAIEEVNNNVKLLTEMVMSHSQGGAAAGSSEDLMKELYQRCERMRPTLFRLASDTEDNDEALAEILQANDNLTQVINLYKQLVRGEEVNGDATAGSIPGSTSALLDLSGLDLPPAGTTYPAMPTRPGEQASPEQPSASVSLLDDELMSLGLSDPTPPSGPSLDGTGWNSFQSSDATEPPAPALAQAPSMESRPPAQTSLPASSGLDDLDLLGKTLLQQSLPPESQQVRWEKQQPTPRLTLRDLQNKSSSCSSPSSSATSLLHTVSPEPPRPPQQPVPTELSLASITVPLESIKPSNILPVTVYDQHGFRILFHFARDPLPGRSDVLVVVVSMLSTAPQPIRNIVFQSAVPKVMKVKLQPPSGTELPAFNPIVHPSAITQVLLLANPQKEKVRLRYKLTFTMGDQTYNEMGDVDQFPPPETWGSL

B1: 6xHis-tagged GGA3 (protein, UniProt Q9NZ52-1 1-723)
chain: T2 sequence
B2: Myc-GGA3 (protein, UniProt Q9NZ52-1 1-723)
chain: T2 sequence
B3: 6xHis-tagged GGA1 (protein, UniProt Q9UJY5-1 1-639)
chain: T3 sequence
B4: Myc-GGA1 (protein, UniProt Q9UJY5-1 1-639)
chain: T3 sequence

Key:
[1] = target: T1, GST-GGA3 VHS domain (human); assay: pull-down; GST-tagged GGA3 domains on glutathione beads; bound TCS detected by immunoblotting with TCS antibody; the source of TCS in this experiment is not told
Myc-GGA3 (human) = target: T2, Myc-GGA3 (human); assay: co-IP; HepG2 cells transfected with Myc-GGA constructs, incubated with TCS, immunoprecipitated with anti-Myc antibody; TCS detected by blot
Myc-GGA1 (human) = target: T3, Myc-GGA1 (human); assay: as above
[2] = target: GST-TCS fusion protein (Trichosanthes kirilowii Maximowicz); assay: pull-down; GST-TCS or GST-TCS (LL/AA) on glutathione agarose beads, incubated with purified 6xHis-tagged GGA proteins; bound GGAs detected with anti-His antibodies and quantified; both purified
[3] = target: GST-TCS (LL/AA) (Trichosanthes kirilowii Maximowicz); assay: as above
[4] = target: GST-TCS fusion protein (Trichosanthes kirilowii Maximowicz); assay: pull-down; GST or GST-TCS on glutathione agarose beads, incubated with lysates of HepG2 cells transfected with Myc-GGA plasmids, 2 hours at 4 °C; detected with anti-myc antibody; only the target purified

Molecule	binding [2]	binding [4]	other results
Trichosanthin (Trichosanthes kirilowii Maximowicz)			binding [1]: binds; binding (Myc-GGA3 (human)): binds; binding (Myc-GGA1 (human)): binds
B1	binds		binding [3]: binds weakly
B2		binds	
B3	binds		
B4		binds	
